These are yes or no findings as the source states them, for the method shown. Binding can be weak; no strength is given. Tags and fused reporters may be left off the sequences shown. For some of these results: In cells and extracts the contact can be indirect.
T1: Flag-tagged Snx2b (Arabidopsis (At prefix of the construct)) (UniProt B9DFS6)
T1 sequence: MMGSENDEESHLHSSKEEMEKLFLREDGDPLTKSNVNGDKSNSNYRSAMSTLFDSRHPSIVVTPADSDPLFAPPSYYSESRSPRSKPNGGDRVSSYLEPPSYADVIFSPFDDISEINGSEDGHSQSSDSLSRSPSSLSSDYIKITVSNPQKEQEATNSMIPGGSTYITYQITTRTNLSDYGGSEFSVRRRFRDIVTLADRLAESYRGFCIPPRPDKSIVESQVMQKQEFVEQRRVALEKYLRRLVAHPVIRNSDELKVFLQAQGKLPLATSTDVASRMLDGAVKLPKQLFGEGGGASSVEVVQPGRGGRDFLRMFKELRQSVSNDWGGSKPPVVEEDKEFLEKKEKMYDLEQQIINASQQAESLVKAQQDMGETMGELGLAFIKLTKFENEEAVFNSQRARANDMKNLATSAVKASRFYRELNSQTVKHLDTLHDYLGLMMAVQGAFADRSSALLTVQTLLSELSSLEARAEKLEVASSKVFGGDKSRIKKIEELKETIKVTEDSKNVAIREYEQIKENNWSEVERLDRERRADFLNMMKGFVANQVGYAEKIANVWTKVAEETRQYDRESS

B1: nYFP-Snx1 (protein, UniProt Q9FG38 1-402)
chain: MESTEQPRNISGSMQSPRSPSSHPYLSVSVTDPVKLGNGVQAYISYRVITKTNLPEYQGPEKIVIRRYSDFVWLRDRLFEKYKGIFIPPLPEKSAVEKFRFSAEFIEMRRAALDIFVNRIALHPELQQSEDLRTFLQADEETMDRFRFQETSIFKKPADLMQMFRDVQSKVSDAVLGKEKPVEETTADYEKLKHYIFELENHLTEAQKHAYRLVKRHRELGQSLLDFGKAVKLLGACEGEPTGKAFSDLGTKSELLSIKLQKEAQQVLMNFEEPLKDYVRYVQSIKATIAERGTAFKQHCELSETTKLKEINLDKLMLTRSDKVGEAEIEYREIKAESEEATRRFERIVKRMEDEIVRFQEQKTEEMGVAFHQFAKGQARLANSVADAWRSLLPKLEASYSV
B2: nYFP-Snx2a (protein, UniProt Q8L5Z7 1-587)
chain: MMGSENADGFEETNLNAQRDDMENLDLGVDGGDHPLKISDVNGDTSNSGYRSAMSTLSNVRDPLSPPPTVMIPADSDPLLAPSSYEDFRSSFSSKPISSDNSYIEPPSYADVIFSPFDENSDSEINGTEDNSLHSQFSDSLSRSPSSSSSDYIKITVSNPQKEQEISNSIVGGNTYITYQITTRTNLPDFGGPSEFSVRRRFRDVVTLADRLAETYRGFCIPPRPDKSVVESQVMQKQEFVEQRRVALEKYLRRLSAHPVIRNSDELKVFLQVQGKLPLPMSTDVASRMLDGAVKLPKQLFGEGGASAVPVTEVGQPARGGRDLLRLFKELRQSVSNDWGGSKPPVVEEDKEFLEKKEKMHDLEQQIINASQQAESLVKAQQDMGETMGELGLAFIKLTKFENEEAVCNPQRTRANDMKNLATAAVKASRFYRELNSQTVKHLDTLHEYLGMMMAVQGAFADRSSALLTVQTLLSELPSLQTRVEKLEAASSKVFGGDKSRIRKIEELKETIKVTEDAKNVAIKGYERIKENNRSEVERLDRERRADFMNMMKGFVVNQVGYAEKMGNVWAKVAEETSQYDREKQSS
B3: nYFP-Snx2b (protein, UniProt B9DFS6 1-572)
chain: T1 sequence
B4: GST-tagged yeast Vps5 (protein, UniProt Q92331 1-675)
chain: MDYEDNLEAPVWDELNHEGDKTQSLVSNSIESIGQISTNEERKDNELLETTASFADKIDLDSAPEWKDPGLSVAGNPQLEEHDNSKADDLINSLAPEQDPIADLKNSTTQFIATRESGGALFTGNANSPLVFDDTIYDANTSPNTSKSISGRRSGKPRILFDSARAQRNSKRNHSLKAKRTTASDDTIKTPFTDPLKKAEKENEFVEEPLDDRNERRENNEGKFTASVEKNILEQVDRPLYNLPQTGANISSPAEVEENSEKFGKTKIGSKVPPTEKAVAFKVEVKDPVKVGELTSIHVEYTVISESSLLELKYAQVSRRYRDFRWLYRQLQNNHWGKVIPPPPEKQSVGSFKENFIENRRFQMESMLKKICQDPVLQKDKDFLLFLTSDDFSSESKKRAFLTGSGAINDSNDLSEVRISEIQLLGAEDAAEVLKNGGIDAESHKGFMSISFSSLPKYNEADEFFIEKKQKIDELEDNLKKLSKSLEMVDTSRNTLAASTEEFSSMVETLASLNVSEPNSELLNNFADVHKSIKSSLERSSLQETLTMGVMLDDYIRSLASVKAIFNQRSKLGYFLVVIENDMNKKHSQLGKLGQNIHSEKFREMRKEFQTLERRYNLTKKQWQAVGDKIKDEFQGFSTDKIREFRNGMEISLEAAIESQKECIELWETFYQTNL
B5: GST-tagged AtSnx1 (protein, UniProt Q9FG38 1-402)
chain: B1 chain
B6: GST-tagged AtSnx2b (protein, UniProt B9DFS6 1-572)
chain: T1 sequence

How the values were obtained:
[1] = molecular target: T1, Flag-tagged Snx2b (Arabidopsis (At prefix of the construct)); assay: co-IP; AtSnx1-Flag or AtSnx2b-Flag purified on anti-Flag M2 agarose from the 1% Triton X-100 solubilized membrane fraction of agroinfiltrated, TBSV-infected N. benthamiana leaves; p33-myc detected with anti-myc
[2] = molecular target: TBSV p33-cYFP (tomato bushy stunt virus (TBSV)); assay: split reporter; BiFC: cYFP fusion of the viral replication protein and nYFP fusion of the SNX-BAR protein co-agroinfiltrated into N. benthamiana leaves, leaves infected with TBSV or CIRV, confocal microscopy 48 h after inoculation; also leaves treated with 66 uM Wortmannin or DMSO (p33 with Snx1 and Snx2b)
[3] = molecular target: CIRV p36-cYFP (carnation Italian ringspot virus (CIRV)); assay: as above
[4] = molecular target: MBP-tagged TBSV p33 replication protein (tomato bushy stunt virus (TBSV)); assay: pull-down; 2 ug MBP-p33 held on amylose resin, 1 ug GST-tagged SNX-BAR protein added, 4 C for 4 h, eluted with maltose, Western blot; both purified

Row | Molecule | binding [1] | binding [2] | binding [3] | binding [4]
1 | myc-tagged TBSV p33 replication protein (tomato bushy stunt virus (TBSV)) | binds |  |  | 
2 | B1 |  | binds | binds | 
3 | B2 |  | binds | binds | 
4 | B3 |  | binds | binds | 
5 | B4 |  |  |  | binds
6 | B5 |  |  |  | binds
7 | B6 |  |  |  | binds
